This passage reports binding results from paper doi:10.1101/2023.09.05.556419.

The chains behind the UniProt entries cited, without tags or fusion partners.
UniProt Q6P542: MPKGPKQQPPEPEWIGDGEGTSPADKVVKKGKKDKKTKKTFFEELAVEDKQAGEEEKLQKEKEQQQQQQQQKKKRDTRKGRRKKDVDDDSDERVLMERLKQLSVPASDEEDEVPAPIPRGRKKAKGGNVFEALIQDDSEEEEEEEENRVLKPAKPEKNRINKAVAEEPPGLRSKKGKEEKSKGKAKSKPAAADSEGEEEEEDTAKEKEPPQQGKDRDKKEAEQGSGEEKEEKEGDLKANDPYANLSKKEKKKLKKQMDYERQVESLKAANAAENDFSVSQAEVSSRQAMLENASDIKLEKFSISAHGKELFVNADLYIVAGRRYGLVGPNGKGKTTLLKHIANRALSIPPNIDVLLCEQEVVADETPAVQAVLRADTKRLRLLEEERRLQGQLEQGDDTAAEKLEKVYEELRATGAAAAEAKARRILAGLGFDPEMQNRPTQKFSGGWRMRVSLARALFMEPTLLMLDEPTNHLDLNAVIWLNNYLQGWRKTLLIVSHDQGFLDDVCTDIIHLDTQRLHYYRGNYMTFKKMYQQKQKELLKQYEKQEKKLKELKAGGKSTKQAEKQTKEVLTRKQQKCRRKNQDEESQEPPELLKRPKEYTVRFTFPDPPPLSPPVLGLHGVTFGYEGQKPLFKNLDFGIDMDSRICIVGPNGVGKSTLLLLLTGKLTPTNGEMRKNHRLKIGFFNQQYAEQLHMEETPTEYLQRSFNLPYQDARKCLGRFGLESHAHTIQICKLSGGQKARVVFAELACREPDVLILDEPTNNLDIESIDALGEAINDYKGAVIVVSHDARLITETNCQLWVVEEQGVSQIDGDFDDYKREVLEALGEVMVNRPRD

Results are given in words; binding and its absence hold for the method and conditions named. Binding seen in cells or lysates may run through a third protein. Some entries that bind do so weakly or less than the wild type.

The experiment deals with ABCF1 (UniProt Q6P542). Put plainly: co-IP.

B1: OAS1a (protein, UniProt P11928 1-367)
chain: MEHGLRSIPAWTLDKFIEDYLLPDTTFGADVKSAVNVVCDFLKERCFQGAAHPVRVSKVVKGGSSGKGTTLKGKSDADLVVFLNNLTSFEDQLNRRGEFIKEIKKQLYEVQHERRFRVKFEVQSSWWPNARSLSFKLSAPHLHQEVEFDVLPAFDVLGHVNTSSKPDPRIYAILIEECTSLGKDGEFSTCFTELQRNFLKQRPTKLKSLIRLVKHWYQLCKEKLGKPLPPQYALELLTVFAWEQGNGCYEFNTAQGFRTVLELVINYQHLRIYWTKYYDFQHQEVSKYLHRQLRKARPVILDPADPTGNVAGGNPEGWRRLAEEADVWLWYPCFIKKDGSRVSSWDVPTVVPVPFEQVEENWTCILL
For the molecule B1, the binding entry is “binds”.
